According to patent US20240083958A1 (VRIJE UNIVERSITEIT BRUSSEL, priority 2020, published 2024):
Square brackets hold non-standard residues; d marks the D form. Cha = N[C@@H](CC1CCCCC1)C(=O)O

Assay: general procedure: Fmoc solid-phase peptide synthesis; preloaded Fmoc-Leu-Wang resin (0.6-0.75 mmol/g) or Rink Amide resin (0.92 mmol/g); HBTU/DIPEA (manual, Activotec P11); DIC/Oxyma (Liberty Blue)
Conditions: whole synthesis, TFA salt

Row | Substance | isolated yield [%]
1 | Ac-FNDARDIIQRMHLRQYELL-OH | 21
2 | Ac-FNDCRDEIQRKHLRQYELL-OH | 10
3 | Ac-FNDCRDIIQRMHLRQAELL-OH | 14
4 | Ac-FNDCRDIIQRMHLRQYALL-OH | 14
5 | Ac-FNDCRDIIQRMHLRQYEAL-OH | 21
6 | Ac-FNDCRDIIQRMHLRQYEFL-OH | 18
7 | Ac-FNDCRDIIQRMHLRQYEHL-OH | 19
8 | Ac-FNDCRDIIQRMHLRQYELA-OH | 17
9 | Ac-FNDCRDIIQRMHLRQYELL-OH | 5
10 | Ac-FNDCRDIIQRMHLRQYEL[Cha]-OH | 5
11 | Ac-FNDCRDIIQRMHLRQYEWL-OH | 17
12 | Ac-FNDCRDIIQRMHLRQYEYL-OH | 20
13 | Ac-FNDCRDIIQRMHLRQYE[Cha]L-OH | 18
14 | Ac-FNDCRDIIQRMHLRQ[Cha]ELL-OH | 13
15 | Ac-FNDCRDS5IQRS5HLRQYELL-OH | 6
16 | Ac-FNDCRDc[EIQRK]HLRQYELL-OH | 10
17 | Ac-FNDCRDc[PraIQRAzk]HLRQYELL-OH | 5
18 | Ac-FNDCRDc[R8IQRMHLS5]QYELL-OH | 1
19 | Ac-FNDCRDc[S5IQRS5]HLRQYELL-OH | 7
20 | Ac-FNECRDKIQRMHLRQYELL-OH | 6
21 | Ac-FNS5CRDS5IQRMHLRQYELL-OH | 7
22 | Ac-FNc[AzkCRDPra]IQRMHLRQYELL-OH | 10

Row | Substance | isolated yield [%]
23 | Ac-FNc[ECRDK]IQRMHLRQYELL-OH | 3
24 | Ac-FNc[PraCRDAzk]IQRMHLRQ1-NalELL-OH | 3.0
25 | Ac-FNc[PraCRDAzk]IQRMHLRQ2-NalELL-OH | 1
26 | Ac-FNc[PraCRDAzk]IQRMHLRQWELL-OH | 7
27 | Ac-FNc[PraCRDAzk]IQRMHLRQYDLL-OH | 6
28 | Ac-FNc[PraCRDAzk]IQRMHLRQYEIL-OH | 12
29 | Ac-FNc[PraCRDAzk]IQRMHLRQYELI-OH | 14
30 | Ac-FNc[PraCRDAzk]IQRMHLRQYELL-NH2 | 11
31 | Ac-FNc[PraCRDAzk]IQRMHLRQYELL-OH | 15
32 | Ac-FNc[PraCRDAzk]IQRMHLRQYHGluLL-OH | 8
33 | Ac-FNc[PraCRDAzk]IQRMHLRQYQLL-OH | 9
34 | Ac-FNc[PraCRNAzk]IQRMHLRQYELL-OH | 11
35 | Ac-FNc[S5CRDS5]IQRMHLRQYELL-OH | 5
36 | Ac-IIQRMHLRQYE[Cha]L-OH | 33
37 | Ac-KFNc[PraCRDAzk]IQRMHLRQYEChaL-OH | 3
38 | Ac-KFNc[PraCRDAzk]IQRMHLRQYEIL-OH | 6
39 | Ac-KFNc[PraCRDAzk]IQRMHLRQYELI-OH | 6
40 | Ac-KFNc[PraCRDAzk]MHLRQYDLL-OH | 4
41 | Ac-KFc[PraCRDAzk]IQRMHLRQYhGluLL-OH | 6
42 | Ac-KKFNc[PraCRDAzk]IQRMHLRQYEChaL-OH | 7
43 | Ac-KKKFNc[PraCRDAzk]IQRMHLRQ2-NalELL-OH | 1
44 | Ac-KKKFNc[PraCRDAzk]IQRMHLRQWELL-OH | 2

Row | Substance | isolated yield [%]
45 | Ac-KKKFNc[PraCRDAzk]IQRMHLRQYDLL-OH | 2
46 | Ac-KKKFNc[PraCRDAzk]IQRMHLRQYEChaL-OH | 8
47 | Ac-KKKFNc[PraCRDAzk]IQRMHLRQYEFL-OH | 3
48 | Ac-KKKFNc[PraCRDAzk]IQRMHLRQYELL-OH | 11
49 | Ac-KKKFNc[PraCRDAzk]IQRMHLRQYhGluLL-OH | 2
50 | Ac-KKKRDIIQRc[AzkHLRPra]YEChaL-OH | 8
51 | Ac-NARRIFNDARDIIQRMHLRQYELL-OH | 13
52 | Ac-NARRIFNDARDIIQRMHLRQYEWL-OH | 12
53 | Ac-QRMHLRQYELL-OH | 14
54 | Ac-QRMHLRQYE[Cha]L-OH | 8
55 | Ac-RDIIQRAzkHLRPraYELL-OH | 24
56 | Ac-RDIIQRMHLRQYELL-OH | 17
57 | Ac-RDIIQRMHLRQYE[Cha]L-OH | 24
58 | Ac-RDIIQRc[AzkHLRPra]YEChaL-OH | 16
59 | Ac-RDIIQRc[AzkHLRPra]YELL-OH | 9
60 | Ac-RFNc[PraCRDAzk]IQRMHLRQYELL-OH | 7
61 | Ac-RRIFNDCRDIIQRMHLRQYELL-OH | 12
62 | H-FNDCRDIIQRMHLRQYELL-OH | 5
63 | H-FNDCRDc[EIQRK]HLRQYELL-OH (FNDCRDEIQRKHLRQYELL; cyclised or stapled) | 17
64 | H-QRMHLRQYELL-OH | 4
65 | H-RDIIQRMHLRQYELL-OH | 16
66 | H-RDIIQRc[AzkHLRPra]YELL-OH | 4

Same assay, conditions: whole synthesis, TFA salt, cyclic

Row | Substance | isolated yield [%]
67 | Ac-KKKFN-[PraCRDAzk]IQRMHLRQYELI-OH | 3
